According to the supplement of paper PMC10849652:
Some of the results follow.

Sequences of proteins named here, by UniProt entry; tags and fusion partners are left off. A change or cut given only in a name is not applied to a line headed by its entry.
UniProt P12081: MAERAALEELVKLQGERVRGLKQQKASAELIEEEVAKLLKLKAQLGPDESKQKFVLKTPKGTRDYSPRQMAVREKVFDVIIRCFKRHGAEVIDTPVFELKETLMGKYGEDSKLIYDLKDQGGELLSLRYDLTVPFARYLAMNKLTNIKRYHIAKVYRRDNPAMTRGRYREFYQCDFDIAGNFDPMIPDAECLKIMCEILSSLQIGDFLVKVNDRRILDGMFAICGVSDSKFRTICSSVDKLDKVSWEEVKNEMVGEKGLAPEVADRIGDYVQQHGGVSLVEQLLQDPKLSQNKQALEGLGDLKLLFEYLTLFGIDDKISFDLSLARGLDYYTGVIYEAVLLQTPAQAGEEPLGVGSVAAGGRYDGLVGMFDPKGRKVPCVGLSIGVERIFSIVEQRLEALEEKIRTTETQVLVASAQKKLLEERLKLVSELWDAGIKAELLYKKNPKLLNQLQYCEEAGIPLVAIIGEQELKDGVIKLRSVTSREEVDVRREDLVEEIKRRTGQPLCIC
UniProt Q7Z4H3: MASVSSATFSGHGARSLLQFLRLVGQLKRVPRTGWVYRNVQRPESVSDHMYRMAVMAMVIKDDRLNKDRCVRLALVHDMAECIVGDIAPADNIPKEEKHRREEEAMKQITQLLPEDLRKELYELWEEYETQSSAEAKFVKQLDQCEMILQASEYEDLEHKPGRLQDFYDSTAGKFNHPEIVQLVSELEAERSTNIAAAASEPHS
UniProt P14317: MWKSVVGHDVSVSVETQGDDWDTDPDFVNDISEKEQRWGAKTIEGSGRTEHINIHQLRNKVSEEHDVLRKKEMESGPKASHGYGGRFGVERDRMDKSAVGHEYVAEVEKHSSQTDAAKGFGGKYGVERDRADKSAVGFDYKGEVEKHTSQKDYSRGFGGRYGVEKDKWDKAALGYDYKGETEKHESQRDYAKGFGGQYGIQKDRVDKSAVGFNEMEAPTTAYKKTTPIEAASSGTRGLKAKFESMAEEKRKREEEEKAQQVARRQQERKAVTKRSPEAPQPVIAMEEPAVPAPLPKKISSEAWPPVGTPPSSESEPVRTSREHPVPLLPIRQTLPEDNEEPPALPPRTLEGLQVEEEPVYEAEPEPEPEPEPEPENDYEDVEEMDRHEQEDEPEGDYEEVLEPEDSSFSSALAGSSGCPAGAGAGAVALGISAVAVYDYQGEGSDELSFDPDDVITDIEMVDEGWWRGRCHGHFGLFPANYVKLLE
UniProt Q9Y2Q3: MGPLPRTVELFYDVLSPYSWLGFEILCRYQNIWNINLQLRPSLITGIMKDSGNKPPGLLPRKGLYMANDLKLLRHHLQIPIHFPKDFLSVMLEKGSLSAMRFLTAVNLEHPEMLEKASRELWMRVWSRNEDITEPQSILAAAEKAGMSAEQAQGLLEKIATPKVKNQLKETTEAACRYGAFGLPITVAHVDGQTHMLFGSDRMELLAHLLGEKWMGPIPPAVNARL
UniProt Q00403, whole entry, looked up: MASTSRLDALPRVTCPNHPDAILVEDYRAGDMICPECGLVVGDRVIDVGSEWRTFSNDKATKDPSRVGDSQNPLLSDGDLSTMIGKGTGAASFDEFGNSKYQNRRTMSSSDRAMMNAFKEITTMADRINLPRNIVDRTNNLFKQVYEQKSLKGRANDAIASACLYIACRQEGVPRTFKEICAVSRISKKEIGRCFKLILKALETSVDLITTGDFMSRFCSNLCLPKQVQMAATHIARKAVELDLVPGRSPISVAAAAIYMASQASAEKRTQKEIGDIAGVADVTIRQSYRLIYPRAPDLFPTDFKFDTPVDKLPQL
UniProt P52655, whole entry, looked up: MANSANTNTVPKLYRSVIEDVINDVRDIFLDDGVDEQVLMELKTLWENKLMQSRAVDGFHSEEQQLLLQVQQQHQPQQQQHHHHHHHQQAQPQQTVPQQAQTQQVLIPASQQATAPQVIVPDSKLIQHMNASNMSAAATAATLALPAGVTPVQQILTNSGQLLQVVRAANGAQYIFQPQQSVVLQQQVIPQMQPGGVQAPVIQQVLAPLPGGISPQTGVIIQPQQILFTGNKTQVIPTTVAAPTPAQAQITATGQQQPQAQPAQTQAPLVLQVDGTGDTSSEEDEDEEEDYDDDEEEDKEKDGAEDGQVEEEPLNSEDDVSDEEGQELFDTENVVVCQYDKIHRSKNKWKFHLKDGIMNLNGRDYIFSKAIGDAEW
UniProt P29084: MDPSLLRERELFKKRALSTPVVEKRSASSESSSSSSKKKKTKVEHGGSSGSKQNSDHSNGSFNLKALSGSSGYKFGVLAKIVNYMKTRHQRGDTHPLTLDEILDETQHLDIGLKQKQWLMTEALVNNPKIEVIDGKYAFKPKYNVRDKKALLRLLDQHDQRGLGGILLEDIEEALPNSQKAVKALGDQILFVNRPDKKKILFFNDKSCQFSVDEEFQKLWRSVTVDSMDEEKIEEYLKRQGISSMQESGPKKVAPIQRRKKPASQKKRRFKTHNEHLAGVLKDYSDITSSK
UniProt Q8WW33: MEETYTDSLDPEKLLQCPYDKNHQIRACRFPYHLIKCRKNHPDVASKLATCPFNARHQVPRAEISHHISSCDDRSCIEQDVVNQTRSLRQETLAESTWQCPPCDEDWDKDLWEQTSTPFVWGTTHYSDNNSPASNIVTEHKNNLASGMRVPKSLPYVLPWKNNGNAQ
UniProt Q8N442: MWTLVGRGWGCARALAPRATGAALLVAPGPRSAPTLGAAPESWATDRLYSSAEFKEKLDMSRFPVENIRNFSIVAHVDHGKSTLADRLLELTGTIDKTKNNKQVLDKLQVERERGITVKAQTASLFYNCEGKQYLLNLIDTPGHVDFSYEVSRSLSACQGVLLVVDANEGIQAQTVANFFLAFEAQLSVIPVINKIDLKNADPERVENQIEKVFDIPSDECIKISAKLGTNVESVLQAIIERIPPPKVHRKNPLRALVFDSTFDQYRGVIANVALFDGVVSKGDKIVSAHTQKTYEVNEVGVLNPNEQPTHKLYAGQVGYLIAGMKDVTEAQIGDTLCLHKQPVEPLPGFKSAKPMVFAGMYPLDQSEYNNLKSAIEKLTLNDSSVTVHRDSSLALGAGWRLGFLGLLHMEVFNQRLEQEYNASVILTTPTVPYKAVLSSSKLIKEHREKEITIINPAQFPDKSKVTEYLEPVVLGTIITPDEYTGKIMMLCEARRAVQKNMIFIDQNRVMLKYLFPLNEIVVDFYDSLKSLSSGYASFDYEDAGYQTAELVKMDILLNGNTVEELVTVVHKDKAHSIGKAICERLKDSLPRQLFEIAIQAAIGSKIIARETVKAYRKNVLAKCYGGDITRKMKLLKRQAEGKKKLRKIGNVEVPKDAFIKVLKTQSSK
UniProt P10412, whole entry, looked up: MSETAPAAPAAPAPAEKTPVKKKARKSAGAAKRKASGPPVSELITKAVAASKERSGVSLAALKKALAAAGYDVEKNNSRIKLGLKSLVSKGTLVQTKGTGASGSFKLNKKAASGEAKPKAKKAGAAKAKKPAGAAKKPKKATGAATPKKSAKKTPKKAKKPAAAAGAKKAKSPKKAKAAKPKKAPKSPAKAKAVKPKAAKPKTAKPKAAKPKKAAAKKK
UniProt P42694: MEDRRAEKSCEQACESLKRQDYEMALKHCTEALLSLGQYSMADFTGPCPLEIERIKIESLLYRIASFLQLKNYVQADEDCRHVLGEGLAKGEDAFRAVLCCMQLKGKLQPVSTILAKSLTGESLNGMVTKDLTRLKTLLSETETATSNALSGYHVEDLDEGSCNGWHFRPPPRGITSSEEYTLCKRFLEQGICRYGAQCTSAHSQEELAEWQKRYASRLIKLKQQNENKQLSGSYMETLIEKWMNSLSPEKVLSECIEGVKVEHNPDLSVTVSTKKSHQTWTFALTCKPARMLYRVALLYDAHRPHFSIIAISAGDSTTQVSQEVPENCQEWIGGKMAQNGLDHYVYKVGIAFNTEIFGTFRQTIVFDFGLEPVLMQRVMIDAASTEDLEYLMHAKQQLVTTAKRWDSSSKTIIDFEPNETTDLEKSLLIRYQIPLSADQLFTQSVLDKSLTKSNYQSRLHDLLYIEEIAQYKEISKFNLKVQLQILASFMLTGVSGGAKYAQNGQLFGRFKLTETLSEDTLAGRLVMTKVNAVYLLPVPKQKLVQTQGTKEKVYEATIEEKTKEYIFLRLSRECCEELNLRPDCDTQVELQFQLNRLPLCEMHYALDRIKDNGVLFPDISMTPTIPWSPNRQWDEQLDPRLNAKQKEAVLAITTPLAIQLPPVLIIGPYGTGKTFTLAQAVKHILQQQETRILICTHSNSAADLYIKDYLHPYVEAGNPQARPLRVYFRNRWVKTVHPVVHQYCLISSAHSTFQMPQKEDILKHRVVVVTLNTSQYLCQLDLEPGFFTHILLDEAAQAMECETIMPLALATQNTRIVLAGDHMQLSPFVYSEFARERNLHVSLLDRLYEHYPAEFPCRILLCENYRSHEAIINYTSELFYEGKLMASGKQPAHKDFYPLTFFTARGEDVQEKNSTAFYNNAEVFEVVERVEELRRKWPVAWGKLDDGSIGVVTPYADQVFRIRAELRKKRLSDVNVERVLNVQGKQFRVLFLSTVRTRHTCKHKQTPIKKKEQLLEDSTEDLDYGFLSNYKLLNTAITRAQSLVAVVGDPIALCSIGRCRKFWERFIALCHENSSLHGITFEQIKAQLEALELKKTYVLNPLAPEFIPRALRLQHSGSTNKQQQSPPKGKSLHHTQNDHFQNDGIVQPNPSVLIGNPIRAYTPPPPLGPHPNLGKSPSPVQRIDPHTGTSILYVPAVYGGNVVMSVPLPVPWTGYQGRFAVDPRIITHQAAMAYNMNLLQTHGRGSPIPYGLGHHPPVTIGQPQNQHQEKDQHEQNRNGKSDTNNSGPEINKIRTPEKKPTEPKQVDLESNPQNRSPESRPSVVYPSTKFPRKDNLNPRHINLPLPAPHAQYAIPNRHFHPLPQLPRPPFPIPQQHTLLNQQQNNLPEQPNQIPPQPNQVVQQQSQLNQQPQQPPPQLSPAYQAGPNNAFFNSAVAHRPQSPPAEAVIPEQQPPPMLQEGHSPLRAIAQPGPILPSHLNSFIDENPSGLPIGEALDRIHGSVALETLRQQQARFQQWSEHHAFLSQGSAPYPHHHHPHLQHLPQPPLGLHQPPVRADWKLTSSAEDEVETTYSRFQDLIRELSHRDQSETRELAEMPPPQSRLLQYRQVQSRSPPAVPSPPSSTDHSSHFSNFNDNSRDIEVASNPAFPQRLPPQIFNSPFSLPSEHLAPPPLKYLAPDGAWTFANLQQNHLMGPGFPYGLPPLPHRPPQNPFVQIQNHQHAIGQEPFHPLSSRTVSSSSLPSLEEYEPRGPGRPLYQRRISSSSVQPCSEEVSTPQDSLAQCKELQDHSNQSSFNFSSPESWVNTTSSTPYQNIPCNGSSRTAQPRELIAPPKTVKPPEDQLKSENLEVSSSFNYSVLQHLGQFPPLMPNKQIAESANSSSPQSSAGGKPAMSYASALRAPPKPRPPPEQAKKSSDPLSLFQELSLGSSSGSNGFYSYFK
UniProt Q6AI08: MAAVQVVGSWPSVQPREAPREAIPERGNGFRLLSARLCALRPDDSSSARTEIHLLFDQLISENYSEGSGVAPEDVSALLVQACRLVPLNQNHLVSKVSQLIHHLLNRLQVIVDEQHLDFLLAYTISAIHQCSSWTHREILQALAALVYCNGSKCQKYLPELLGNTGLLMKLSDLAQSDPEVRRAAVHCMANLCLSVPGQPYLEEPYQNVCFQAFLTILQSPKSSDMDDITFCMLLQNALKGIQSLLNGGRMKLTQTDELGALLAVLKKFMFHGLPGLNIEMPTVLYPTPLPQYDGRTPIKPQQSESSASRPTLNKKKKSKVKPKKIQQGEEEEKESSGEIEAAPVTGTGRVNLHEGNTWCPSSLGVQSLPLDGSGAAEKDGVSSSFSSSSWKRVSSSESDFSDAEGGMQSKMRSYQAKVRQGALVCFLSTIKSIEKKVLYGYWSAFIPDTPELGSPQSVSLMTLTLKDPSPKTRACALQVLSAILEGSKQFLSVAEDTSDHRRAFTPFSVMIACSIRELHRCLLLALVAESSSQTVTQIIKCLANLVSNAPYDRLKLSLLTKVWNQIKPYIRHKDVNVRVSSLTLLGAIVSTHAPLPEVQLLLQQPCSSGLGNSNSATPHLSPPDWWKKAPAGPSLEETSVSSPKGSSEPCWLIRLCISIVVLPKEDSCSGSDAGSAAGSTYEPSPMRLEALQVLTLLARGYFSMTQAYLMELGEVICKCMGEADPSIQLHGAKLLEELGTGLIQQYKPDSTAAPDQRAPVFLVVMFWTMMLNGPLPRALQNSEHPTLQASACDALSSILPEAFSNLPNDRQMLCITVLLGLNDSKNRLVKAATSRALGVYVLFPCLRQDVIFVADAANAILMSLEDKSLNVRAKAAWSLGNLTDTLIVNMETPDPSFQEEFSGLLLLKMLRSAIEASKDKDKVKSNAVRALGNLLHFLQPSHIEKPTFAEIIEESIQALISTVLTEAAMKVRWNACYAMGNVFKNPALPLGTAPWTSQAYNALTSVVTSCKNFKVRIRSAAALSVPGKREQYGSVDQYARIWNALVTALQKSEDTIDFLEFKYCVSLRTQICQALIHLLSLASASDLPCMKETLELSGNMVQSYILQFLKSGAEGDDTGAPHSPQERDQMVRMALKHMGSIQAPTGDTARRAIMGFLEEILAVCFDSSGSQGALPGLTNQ

What was measured:
Experiment in all cases: log2 fold change, soluble protein after heating vs DMSO (PISA); higher = thermal stabilisation; K562 cells, 10 uM, 30 min; active = over 0.2 and 3.5 SD of the protein, either way, in both replicates (recomputed)
[1] = compound: NC(=O)Nc1cc(-c2cccc(F)c2)sc1C(=O)N[C@H]1CCCNC1
Procedure, shortened: (§1)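 K562 cells at 2×10^6 cells/mL were given 10 μM compound for 30 min. Aliquots then went through 3 min of heating across 48°C-58°C, were pooled, and were extracted in PBS with 0.5% NP-40 at 4°C, and the supernatant after 21,000xg for 90 min was quantified by TMTpro 16plex LC-MS/MS with channel sums equalised. Thermal stability relative to control samples, from duplicates, is given as log2 fold change.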

[2] = compound: NC(=O)c1cnc(N[C@@H]2CCCC[C@@H]2N)nc1Nc1cccc(-n2nccn2)c1
Procedure, shortened: as §1

[3] = compound: NC1(c2ccc(-c3nc4ccn5c(=O)[nH]nc5c4cc3-c3ccccc3)cc2)CCC1
Procedure, shortened: as §1

[4] = compound: NCC(=O)Nc1ccc(-n2nc(C(F)(F)F)cc2-c2ccc3c(ccc4ccccc43)c2)cc1
Procedure, shortened: as §1

[5] = compound: Nc1ccccc1NC(=O)c1ccc(CNC(=O)OCc2cccnc2)cc1 [entinostat]
Procedure, shortened: as §1

[6] = compound: O=C(CCCCCCC(=O)Nc1ccccc1)NO [vorinostat]
Procedure, shortened: as §1

[7] = compound: O=C(CCCCCCNC(=O)c1cnc(N(c2ccccc2)c2ccccc2Cl)nc1)NO [citarinostat]
Procedure, shortened: as §1

[8] = compound: O=C(O)c1ccc2c(c1)nc(Nc1cccc(Cl)c1)c1ccncc12 [silmitasertib]
Procedure, shortened: as §1

[9] = compound: O=C1NC(=O)C(c2cnc3ccccn23)=C1c1cn2c3c(cc(F)cc13)CN(C(=O)N1CCCCC1)CC2
Procedure, shortened: as §1

[10] = compound: c1cc(OCCN2CCCCC2)cc(-c2n[nH]c3ccc(-c4nnc[nH]4)cc23)c1
Procedure, shortened: as §1

Measured: log2 fold change

HARS (UniProt P12081)
inactive: [1] 0.018 | [2] 0.01 | [3] -0.006 | [4] 0.028 | [5] -0.034 | [6] -0.005 | [7] -0.001 | [8] -0.018 | [9] -0.019 | [10] -0.019

HCFC1 isoform 4 (UniProt P51610)
inactive: [1] 0.025 | [2] -0.04 | [3] -0.033 | [4] -0.063 | [5] 0.011 | [6] 0.015 | [7] 0.026 | [8] -0.01 | [9] -0.02 | [10] -0.022

GSTM2 (UniProt P28161)
inactive: [1] -0.014 | [2] 0.01 | [3] 0.002 | [4] 0.039 | [5] -0.008 | [6] -0.028 | [7] -0.015 | [8] -0.024 | [9] -0.047 | [10] 0.07

HBS1L (UniProt Q9Y450)
inactive: [1] -0.03 | [2] -0.035 | [3] -0.083 | [4] -0.063 | [5] 0.032 | [6] 0.071 | [7] 0.016 | [8] 0.011 | [9] -0.013 | [10] -0.039

HDDC2 (UniProt Q7Z4H3)
inactive: [1] -0.013 | [2] 0.111 | [3] -0.005 | [4] 0.032 | [5] -0.03 | [6] -0.036 | [7] 0.032 | [8] -0.032 | [9] 0.029 | [10] -0.041

HCLS1 (UniProt P14317)
inactive: [1] 0.035 | [2] -0.015 | [3] -0.006 | [4] 0.043 | [5] -0.015 | [6] -0.058 | [7] -0.065 | [8] 0.006 | [9] -0.047 | [10] 0.023

GSTK1 (UniProt Q9Y2Q3)
inactive: [1] -0.034 | [2] -0.011 | [3] -0.046 | [4] -0.021 | [5] 0.081 | [6] 0.002 | [7] 0.059 | [8] -0.058 | [9] -0.153 | [10] -0.01

Looked up one by one from above (2):
HBS1L (UniProt Q9Y450)
inactive: [1] -0.03 | [2] -0.035 | [3] -0.083 | [4] -0.063 | [5] 0.032 | [6] 0.071 | [7] 0.016 | [8] 0.011 | [9] -0.013 | [10] -0.039

HCLS1 (UniProt P14317)
inactive: [1] 0.035 | [2] -0.015 | [3] -0.006 | [4] 0.043 | [5] -0.015 | [6] -0.058 | [7] -0.065 | [8] 0.006 | [9] -0.047 | [10] 0.023

Additional records:

GTF2B (UniProt Q00403)
inactive: [1] -0.009 | [2] -0.08 | [3] -0.172 | [4] -0.056 | [5] 0.047 | [6] 0.211 | [7] 0.037 | [8] 0.005 | [9] -0.156 | [10] 0.022

GTF2F2 (UniProt P13984)
inactive: [1] 0.006 | [2] -0.036 | [3] -0.063 | [4] -0.05 | [5] 0.008 | [6] 0.051 | [7] 0.028 | [8] -0.043 | [9] -0.081 | [10] -0.039

HDHD3 (UniProt Q9BSH5)
inactive: [1] 0.003 | [2] -0.115 | [3] -0.06 | [4] -0.04 | [5] 0.009 | [6] -0.04 | [7] 0.015 | [8] 0.01 | [9] -0.072 | [10] -0.095

GTF2A1 (UniProt P52655)
inactive: [1] -0.029 | [2] 0.249 | [3] 0.01 | [4] 0.093 | [5] -0.116 | [6] -0.031 | [7] -0.035 | [8] 0.004 | [9] -0.028 | [10] 0.016

GTF2E2 (UniProt P29084)
inactive: [1] -0.097 | [2] -0.052 | [3] -0.048 | [4] -0.048 | [5] 0.025 | [6] 0.093 | [7] 0.093 | [8] 0.085 | [9] 0.054 | [10] -0.067

GSTM3 (UniProt P21266)
inactive: [1] 0.202 | [2] 0.072 | [3] -0.017 | [4] -0.066 | [5] 0.076 | [6] 0.11 | [7] 0.12 | [8] 0.015 | [9] -0.056 | [10] -0.009

HEATR5B (UniProt Q9P2D3)
inactive: [1] 0.01 | [2] 0.012 | [3] -0.152 | [4] -0.028 | [5] -0.03 | [6] -0.008 | [7] 0 | [8] -0.053 | [9] 0.083 | [10] 0.056

HDAC6 (UniProt Q9UBN7)
active: [6] 0.86 | [7] 0.747
inactive: [1] 0.002 | [2] -0.04 | [3] 0.054 | [4] 0.001 | [5] -0.053 | [8] 0.009 | [9] 0.004 | [10] 0.064

HDAC4 (UniProt P56524)
inactive: [1] -0.007 | [2] 0.084 | [3] -0.03 | [4] -0.039 | [5] -0.065 | [6] 0.103 | [7] -0.051 | [8] -0.021 | [9] 0.009 | [10] -0.064

GTSF1 (UniProt Q8WW33)
inactive: [1] 0.017 | [2] 0.037 | [3] 0.027 | [4] 0.061 | [5] 0.004 | [6] 0.005 | [7] 0.01 | [8] -0.047 | [9] -0.055 | [10] 0.023

GUF1 (UniProt Q8N442)
inactive: [1] 0.003 | [2] -0.078 | [3] -0.009 | [4] 0.002 | [5] 0.011 | [6] -0.009 | [7] 0.023 | [8] 0.096 | [10] -0.079

HDAC5 isoform 3 (UniProt Q9UQL6)
inactive: [1] -0.148 | [2] 0.183 | [3] 0.168 | [5] 0.002 | [6] -0.072 | [7] -0.023 | [8] -0.028 | [9] 0 | [10] 0.012

GTPBP3 isoform 2 (UniProt Q969Y2)
inactive: [1] 0.006 | [2] 0.028 | [3] -0.028 | [4] -0.052 | [5] 0 | [6] -0.043 | [7] -0.085 | [8] 0.018 | [9] -0.024 | [10] -0.149

GTF2I (UniProt P78347)
inactive: [1] 0.11 | [2] 0.009 | [3] 0.127 | [4] -0.217 | [5] 0.065 | [6] 0.097 | [7] -0.121 | [8] 0.055 | [9] -0.041 | [10] -0.139

GSTCD (UniProt Q8NEC7)
inactive: [1] 0.039 | [2] -0.115 | [3] -0.154 | [4] -0.077 | [5] 0.014 | [7] -0.018 | [8] -0.113 | [9] 0.011 | [10] -0.012

H1-4 (UniProt P10412)
inactive: [1] 0.17 | [2] 0.074 | [3] 0.3 | [4] 0.093 | [5] 0.025 | [6] 0.097 | [7] -0.056 | [8] 0.086 | [9] 0.148 | [10] -0.279

GTF2E1 (UniProt P29083)
inactive: [1] -0.038 | [2] -0.118 | [3] -0.122 | [4] -0.198 | [5] 0.054 | [6] 0.095 | [7] 0.073 | [8] 0.06 | [9] -0.134 | [10] -0.124

GUSB (UniProt P08236)
inactive: [1] -0.044 | [2] 0.029 | [3] 0.047 | [4] 0.067 | [5] -0.066 | [6] 0.049 | [7] 0.148 | [8] -0.011 | [9] 0.057 | [10] -0.059

H2AZ1 (UniProt P0C0S5)
inactive: [1] 0.067 | [2] 0.258 | [3] 0.444 | [4] -0.038 | [5] 0.135 | [6] 0.19 | [7] -0.058 | [8] 0 | [9] 0.086 | [10] -0.032

HELZ (UniProt P42694)
inactive: [1] 0.054 | [2] 0.111 | [3] 0.055 | [4] -0.044 | [5] 0.022 | [6] 0.044 | [7] 0.125 | [8] 0.09 | [10] -0.067

HEATR6 (UniProt Q6AI08)
inactive: [1] -0.001 | [2] -0.042 | [3] -0.038 | [4] 0.048 | [5] 0.067 | [7] -0.054 | [8] 0 | [9] 0.015 | [10] -0.009
